Measured values: the supplement of paper PMC10727501
This is one part of the list. This data set is noisy: repeats of one test often differ as much as different tests do.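 Free-swimming zebrafish larvae were scored for O-bend response probability to dark flashes (naive: first five; training: remaining flashes of four 60-flash blocks; test: later 60-flash block) and for turning toward alternating leftward/rightward LED motion (OMR). Six treated larvae were compared with sixty 0.1% DMSO controls; |SSMD|≥2 defined a hit.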

These molecules were tested on Danio rerio larvae (5 dpf, TLF) (assay: Prob-Train (SSMD vs DMSO vehicle); higher = higher than vehicle (e.g. higher dark-flash O-bend response probability, or better optomotor performance)). Conditions: 10 µM; pre-incubation: 30-90 min.

Compound	Prob-Train
CCCC(=O)Nc1ccc(OCC(O)CNC(C)C)c(C(C)=O)c1.Cl (stereo not given) [Acebutolol HCl]	-0.484
CCCCCCCCCCCCc1ccc(S(=O)(=O)Nc2nncs2)cc1	-0.445
C=CCc1cccc(/C=N/NC(=O)CN2CCN(Cc3ccccc3)CC2)c1O	0.0395
Cc1nnc(C(C)C)n1C1CC2CCC(C1)N2CC[C@H](NC(=O)C1CCC(F)(F)CC1)c1ccccc1 (stereo not given in full) [Maraviroc]	-0.264
CC1(C)S[C@@H]2[C@H](NC(=O)C(C(=O)[O-])c3ccccc3)C(=O)N2[C@H]1C(=O)[O-].[Na+].[Na+] (stereo not given in full) [Carbenicillin disodium]	-0.24
O=c1[nH]cnc2c1ncn2[C@H]1CC[C@@H](CO)O1 [Didanosine]	-0.0881
CO[C@H]1[C@@H](O[C@H]2O[C@@H](C)[C@H](O[C@@H]3C[C@](C)(O)[C@H](O)[C@@H](C)O3)[C@@H](N(C)C)[C@@H]2O)[C@@H](CC=O)C[C@@H](C)[C@@H](O[C@H]2CC[C@H](N(C)C)[C@H](C)O2)/C=C/C=C/C[C@@H](C)OC(=O)C[C@H]1O [Spiramycin]	0.538
O=C(CCCCCCNC(=O)c1cnc(N(c2ccccc2)c2ccccc2)nc1)NO [Rocilinostat (ACY-1215)]	0.248
Cc1oncc1C(=O)Nc1ccc(C(F)(F)F)cc1 [Leflunomide]	-0.395
O=C(O)c1cc(-c2ccccc2)nc2ccccc12 [Cinchophen]	0.0346
O=C(CCCc1ccccc1)[O][Na] [Sodium Phenylbutyrate]	0.114
CCOC(=O)c1ccc(N2NC(=O)/C(=C/c3ccc([N+](=O)[O-])o3)C2=O)cc1	-0.154
CN(C)CCCN1c2ccccc2CCc2ccccc21.Cl [Imipramine HCl]	0.171
C=CC(=O)N1CCC[C@@H](n2nc(-c3ccc(Oc4ccccc4)cc3)c3c(N)ncnc32)C1	-1.58
C=CCN1CCCC1CNC(=O)c1cc2nn[nH]c2cc1OC.Cl (stereo not given) [Alizapride HCl]	-0.419
COCC[n+]1c2c(n(Cc3cnccn3)c1C)C(=O)c1ccccc1C2=O [YM155 (Sepantronium Bromide)]	0.538
CC[C@@H]1C(=O)N(C)c2cnc(Nc3ccc(C(=O)NC4CCN(C)CC4)cc3OC)nc2N1C1CCCC1	-0.692
Cl.Cl.Fc1cc(-c2cccc3ncc(-c4cnn(C5CCNCC5)c4)nc23)cc(F)c1CN1CCOCC1	-0.0502
CC[C@@H](C)Nc1cc(C(=O)NC2CC3CCC(C2)N3c2ccc(C(=O)C3CC3)cn2)c(C)cc1C(N)=O (stereo not given in full)	0.667
Cc1cc(C)c2c(c1)[C@@H](N(Cc1cc(C(F)(F)F)cc(C(F)(F)F)c1)c1nnn(C)n1)CCCN2C[C@H]1CC[C@H](C(=O)O)CC1	-0.952

Looked up one by one from the list above, three records:
Compound	Prob-Train
CCOC(=O)c1ccc(N2NC(=O)/C(=C/c3ccc([N+](=O)[O-])o3)C2=O)cc1	-0.154
CC1(C)S[C@@H]2[C@H](NC(=O)C(C(=O)[O-])c3ccccc3)C(=O)N2[C@H]1C(=O)[O-].[Na+].[Na+] (stereo not given in full) [Carbenicillin disodium]	-0.24
C=CCN1CCCC1CNC(=O)c1cc2nn[nH]c2cc1OC.Cl (stereo not given) [Alizapride HCl]	-0.419

The listing continues:

Compound	Prob-Train
CN(c1ncccc1CNc1nc(Nc2ccc3c(c2)CC(=O)N3)ncc1C(F)(F)F)S(C)(=O)=O	-0.0193
Cc1nc(C(=O)NCC(=O)O)c(O)c2ccc(Oc3ccccc3)cc12	0.335
NCC(=O)Nc1ccc(-n2nc(C(F)(F)F)cc2-c2ccc3c(ccc4ccccc43)c2)cc1	-2.18
C[C@@H]1[C@H](NC(=O)/C(=N\OC(C)(C)C(=O)O)c2csc(N)n2)C(=O)N1S(=O)(=O)O [Aztreonam]	0.115
CN1c2ccccc2C(=O)N2CCc3c([nH]c4ccccc34)C21 (stereo not given) [Evodiamine]	-0.74
COc1ccc(-n2nc(C(N)=O)c3c2C(=O)N(c2ccc(N4CCCCC4=O)cc2)CC3)cc1 [Apixaban]	0.0158
O=c1c(-c2ccc(O)cc2)coc2cc(O)ccc12 [Daidzein]	-0.224
CN[C@@H](C)C(=O)N[C@H](C(=O)N1CCC[C@H]1C(=O)Nc1snnc1-c1ccccc1)C1CCCCC1	0.29
CC1(C)O[C@@H]2C[C@H]3[C@@H]4CCC5=CC(=O)CC[C@]5(C)[C@]4(F)[C@H](O)C[C@]3(C)[C@@]2(C(=O)CCl)O1 [Halcinonide]	0.00574
Cc1nc(Nc2ncc(C(=O)Nc3c(C)cccc3Cl)s2)cc(N2CCN(CCO)CC2)n1 [Dasatinib]	-0.306
COc1cccc2c1C(=O)c1c(O)c3c(c(O)c1C2=O)C[C@@](O)(C(=O)CO)C[C@H]3O[C@H]1C[C@H](N)[C@@H](O)[C@H](C)O1.Cl [Epirubicin HCl]	-0.431
CC1(C)O[C@@H]2[C@@H](CO[C@@]3(COS(N)(=O)=O)OC(C)(C)O[C@@H]23)O1 [Topiramate]	0.0272
CCN(CC)CC(=O)Nc1c(C)cccc1C [Lidocaine]	-0.362
O=C(CS(=O)Cc1ccco1)NC/C=C\COc1cc(CN2CCCCC2)ccn1 (stereo not given) [Lafutidine]	-0.56
CC(C)(Oc1ccc(CCNC(=O)c2ccc(Cl)cc2)cc1)C(=O)O [Bezafibrate]	0.0636
Brc1c(NC2=NCCN2)ccc2nccnc12.O=C(O)[C@@H](O)[C@@H](O)C(=O)O [Brimonidine Tartrate]	-1.12
CCC(CC)n1ccc2c(C(=O)NCc3c(C)cc(C)[nH]c3=O)cc(C#N)cc21	-0.121
CC(=O)Oc1cc(C(F)(F)F)ccc1C(=O)O [Triflusal]	-0.424
C[C@H]1CCO[C@H]2Cn3cc(C(=O)NCc4ccc(F)cc4F)c(=O)c(O)c3C(=O)N21	0.0433
NCC[C@H](O)C(=O)N[C@@H]1C[C@H](N)[C@H](O[C@H]2O[C@H](CN)[C@@H](O)[C@@H](O)[C@H]2O)[C@H](O)[C@H]1O[C@H]1O[C@H](CO)[C@@H](O)[C@@H](N)[C@H]1O.O=S(=O)(O)O.O=S(=O)(O)O [Amikacin sulfate]	0.139
